PubChem BioAssay AID1259405 | NCATS | 2018
Here is one part, drawn at random, of about 50,000 reagents. About 4,000 of all reagents (8%) were called active. 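Mouse siRNA library applied to hamster cells; one well for each siRNA.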 The numbers tell different reagents against one gene apart.

- Purpose: 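Knock-downs that lift recombinant protein yield in hamster ovary cells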 (primary screen)
- Cell system: Chinese hamster CHO-K1 ovary cells with stable secreted eGFP expression
- Knock-down reagent: single siRNA against mouse genes, 0.8 pmol siRNA per well (2 µl of 400 nM stock)
- Time to read-out: 3 days
- Measurement: 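Per-well intracellular GFP measured by laser scanning cytometry, plus viability from ATP luminescence, each relative to plate median of non-targeting control wells, in %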
- Reading the numbers: GFP, % of control: higher = more GFP per well, higher productivity; viability (ATP), % of control: higher = more viable cells (more ATP)
- Active means: 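a knock-down is called active if GFP reaches 120% or more of non-targeting control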

The opening 2 records, to show the layout:
no.	Gene	reagent	GFP, % of control	viability (ATP), % of control	Call
1	Tfpi2	1	82	122	inactive
2	Tfpi2	2	73.5	91.2	inactive

The listing, from the first entry:
no.	Gene	reagent	GFP, % of control	viability (ATP), % of control	Call
1	Tfpi2	1	82	122	inactive
2	Tfpi2	2	73.5	91.2	inactive
3	Tfpi2	3	37.5	21.7	inactive
4	Oser1	1	85.2	87	inactive
5	Oser1	2	77.8	65.6	inactive
6	Oser1	3	96.5	101	inactive
7	Mettl24	1	40.6	37.2	inactive
8	Mettl24	2	82.9	91.8	inactive
9	Mettl24	3	77.5	132	inactive
10	Pcnt	1	53.6	34.4	inactive
11	Pcnt	2	59.5	63.1	inactive
12	Pcnt	3	127	113	active
13	Pcgf1	1	68.6	74.6	inactive
14	Pcgf1	2	72.3	85.1	inactive
15	Pcgf1	3	73.4	81.3	inactive
16	Rragc	1	102	57.4	inactive
17	Rragc	2	96.2	63.5	inactive
18	Rragc	3	76	71.7	inactive
19	Or10al6	1	47.4	96.6	inactive
20	Or10al6	2	93.3	77.8	inactive
21	Or10al6	3	134	41	active
22	Limk2	1	99.4	53.4	inactive
23	Limk2	2	40.2	55.4	inactive
24	Limk2	3	67.3	72.9	inactive
25	Cdc42ep1	1	74.2	92.7	inactive
26	Cdc42ep1	2	66.8	71.3	inactive
27	Cdc42ep1	3	80.3	104	inactive
28	Moxd2	1	71.9	98.9	inactive
29	Moxd2	2	64.3	67.7	inactive
30	Moxd2	3	50	48.3	inactive
31	Rpap3	1	36.2	34.2	inactive
32	Rpap3	2	81.2	79.6	inactive
33	Rpap3	3	109	78.5	inactive
34	Pea15b-ps	1	92.6	66.6	inactive
35	Pea15b-ps	2	59	37.9	inactive
36	Pea15b-ps	3	84.6	51.2	inactive
